Assay: Pharmacokinetic study in healthy adults of single vs. multiple oral doses of colchicine tablets (Example 1);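 also: Single-dose and multiple-dose periods given to the same subjects, with a 14-day washout between the two periods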
Format: in vivo, human
Conditions: after colchicine 0.6 mg single and multiple doses; LOQ 0.2 ng/mL; 13 subjects

COc1c(O)cc2c(c1OC)-c1ccc(OC)c(=O)cc1[C@@H](NC(C)=O)CC2 [3-O-demethylcolchicine]
metabolite plasma concentration: only one sample from 1 subject (of 13 subjects) had a detectable

— patent publication US20110046227A1, “METHODS FOR CONCOMITANT ADMINISTRATION OF […] A SECOND ACTIVE AGENT” (MUTUAL PHARMACEUTICAL COMPANY, INC., priority 2009, published 2011)
